From article PMC11508090
No constants are given. Whether binding was seen depends on the method and setting. Binding seen in cells or lysates may run through a third protein. These calls come from enrichment with a bait or labelling near it, and not all partners need be listed. A no says only that the protein was not detected with the bait.

Legend:
Assay in all cases: proximity labelling; eleven TurboID fusion strains (ndt80, homozygous) and a no-TurboID control, ~24 h sporulation, two replicates; TCA extract, streptavidin-sepharose pull-down, trypsin, UPLC-MS/MS; targets = in both replicates and in neither control
[1] = biological target: T1, Msh5-TurboID (S. cerevisiae) (UniProt Q12175)
T1 sequence: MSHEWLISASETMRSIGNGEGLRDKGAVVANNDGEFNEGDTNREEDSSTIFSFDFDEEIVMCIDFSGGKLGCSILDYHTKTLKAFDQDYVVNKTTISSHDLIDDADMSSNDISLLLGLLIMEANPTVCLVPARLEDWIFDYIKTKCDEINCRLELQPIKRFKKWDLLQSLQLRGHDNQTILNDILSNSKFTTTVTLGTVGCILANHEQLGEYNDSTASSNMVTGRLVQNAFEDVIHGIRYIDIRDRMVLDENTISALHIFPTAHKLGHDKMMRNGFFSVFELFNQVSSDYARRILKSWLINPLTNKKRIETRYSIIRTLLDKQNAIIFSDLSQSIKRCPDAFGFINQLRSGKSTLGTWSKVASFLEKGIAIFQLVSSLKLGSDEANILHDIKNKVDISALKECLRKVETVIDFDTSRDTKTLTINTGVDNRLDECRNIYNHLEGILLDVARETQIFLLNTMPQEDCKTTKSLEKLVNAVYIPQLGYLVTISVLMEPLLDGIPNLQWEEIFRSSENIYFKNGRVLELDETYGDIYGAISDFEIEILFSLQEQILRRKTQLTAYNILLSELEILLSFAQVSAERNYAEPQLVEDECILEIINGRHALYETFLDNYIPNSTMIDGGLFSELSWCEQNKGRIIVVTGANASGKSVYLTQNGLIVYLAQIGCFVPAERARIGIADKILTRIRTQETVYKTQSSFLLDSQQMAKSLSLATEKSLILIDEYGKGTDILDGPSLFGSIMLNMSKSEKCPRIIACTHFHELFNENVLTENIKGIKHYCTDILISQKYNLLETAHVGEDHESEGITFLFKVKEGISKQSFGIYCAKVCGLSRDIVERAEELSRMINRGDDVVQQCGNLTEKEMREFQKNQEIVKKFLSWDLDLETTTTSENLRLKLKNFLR

[2] = biological target: T2, Mlh3-TurboID (S. cerevisiae) (UniProt Q12083)
T2 sequence: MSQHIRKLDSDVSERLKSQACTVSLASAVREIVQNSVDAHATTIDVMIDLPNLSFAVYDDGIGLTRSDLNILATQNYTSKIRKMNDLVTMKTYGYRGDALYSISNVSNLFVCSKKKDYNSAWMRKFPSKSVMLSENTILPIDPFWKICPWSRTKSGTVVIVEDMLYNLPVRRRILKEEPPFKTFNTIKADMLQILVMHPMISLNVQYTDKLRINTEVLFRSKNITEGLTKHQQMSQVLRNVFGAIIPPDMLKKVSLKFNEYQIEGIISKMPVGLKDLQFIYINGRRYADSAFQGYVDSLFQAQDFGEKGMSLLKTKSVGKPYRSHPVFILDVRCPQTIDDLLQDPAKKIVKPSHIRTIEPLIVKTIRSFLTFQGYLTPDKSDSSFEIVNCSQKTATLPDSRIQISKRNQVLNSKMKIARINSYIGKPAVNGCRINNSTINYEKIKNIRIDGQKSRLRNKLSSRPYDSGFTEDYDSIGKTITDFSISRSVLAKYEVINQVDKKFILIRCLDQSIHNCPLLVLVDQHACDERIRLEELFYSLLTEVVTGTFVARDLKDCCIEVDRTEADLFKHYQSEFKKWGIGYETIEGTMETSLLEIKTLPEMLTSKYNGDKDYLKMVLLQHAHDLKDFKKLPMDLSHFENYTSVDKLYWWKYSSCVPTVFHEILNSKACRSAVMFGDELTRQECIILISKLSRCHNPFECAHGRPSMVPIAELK

[3] = biological target: T3, Spo16-TurboID (S. cerevisiae) (UniProt P17122)
T3 sequence: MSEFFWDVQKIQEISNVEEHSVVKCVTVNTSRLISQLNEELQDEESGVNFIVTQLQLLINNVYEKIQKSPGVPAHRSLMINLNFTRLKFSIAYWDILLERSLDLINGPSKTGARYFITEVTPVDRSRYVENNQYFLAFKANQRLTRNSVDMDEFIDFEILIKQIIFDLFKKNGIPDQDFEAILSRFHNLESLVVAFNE

[4] = biological target: T4, Msh4-TurboID (S. cerevisiae) (UniProt P40965)
T4 sequence: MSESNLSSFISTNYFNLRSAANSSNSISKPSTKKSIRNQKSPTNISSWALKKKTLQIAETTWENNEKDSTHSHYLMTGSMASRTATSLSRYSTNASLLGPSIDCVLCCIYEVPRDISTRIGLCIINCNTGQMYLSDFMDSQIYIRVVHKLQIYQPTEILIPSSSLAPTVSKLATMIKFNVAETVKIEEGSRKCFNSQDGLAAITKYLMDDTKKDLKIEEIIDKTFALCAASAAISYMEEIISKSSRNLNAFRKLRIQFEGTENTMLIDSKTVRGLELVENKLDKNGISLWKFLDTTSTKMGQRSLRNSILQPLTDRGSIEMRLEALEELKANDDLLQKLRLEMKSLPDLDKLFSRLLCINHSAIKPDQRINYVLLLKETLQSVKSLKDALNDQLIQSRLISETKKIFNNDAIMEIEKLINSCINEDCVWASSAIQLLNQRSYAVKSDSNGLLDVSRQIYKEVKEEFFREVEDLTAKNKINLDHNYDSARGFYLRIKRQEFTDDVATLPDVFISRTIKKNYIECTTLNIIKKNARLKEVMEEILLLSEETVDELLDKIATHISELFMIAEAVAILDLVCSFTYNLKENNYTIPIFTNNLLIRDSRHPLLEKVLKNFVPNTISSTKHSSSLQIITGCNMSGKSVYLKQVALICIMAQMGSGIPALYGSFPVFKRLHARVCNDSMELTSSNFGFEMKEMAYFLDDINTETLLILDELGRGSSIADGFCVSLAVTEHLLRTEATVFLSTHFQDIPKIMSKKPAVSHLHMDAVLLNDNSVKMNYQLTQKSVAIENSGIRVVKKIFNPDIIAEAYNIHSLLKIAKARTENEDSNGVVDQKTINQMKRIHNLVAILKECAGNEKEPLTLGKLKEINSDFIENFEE

binding [1]: no binding
binding [2]: no binding
binding [3]: no binding
binding [4]: no binding
Substance: Zip4 (S. cerevisiae)
